Measured values from US20210087231A1 (UNIVERSITY OF MARYLAND BALTIMORE, published 2021).
These are yes or no findings as the source states them, for the method shown. Some entries that bind do so weakly or less than the wild type.

Protein sequences, listed by entry. Tags and fused reporters are not part of them. Residues count along the entry.
UniProt Q99836, residues 155-296: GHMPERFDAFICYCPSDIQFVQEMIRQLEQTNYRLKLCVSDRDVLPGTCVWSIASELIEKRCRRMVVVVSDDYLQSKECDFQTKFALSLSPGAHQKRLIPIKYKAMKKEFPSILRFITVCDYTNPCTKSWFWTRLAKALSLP

Columns and labels:
TLR9 TIR-Cer [1] = molecular target: T1, TLR9 TIR-Cer (UniProt Q9NR96); test: cell-based FRET-FLIM binding assay
T1 sequence (looked up): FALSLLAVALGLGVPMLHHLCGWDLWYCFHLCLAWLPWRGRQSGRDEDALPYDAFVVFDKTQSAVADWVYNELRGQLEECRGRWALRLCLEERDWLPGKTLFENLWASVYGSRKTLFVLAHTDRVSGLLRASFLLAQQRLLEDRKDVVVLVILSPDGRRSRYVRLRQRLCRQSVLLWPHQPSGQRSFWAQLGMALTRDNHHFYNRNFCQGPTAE

TLR9 TIR-Cer [2] = molecular target: T1, TLR9 TIR-Cer; test: FRET-FLIM in HeLa cells
TLR9 TIR-Cer [3] = molecular target: T1, TLR9 TIR-Cer; test: FRET-FLIM in HeLa cells (FIG. 13)
TLR9 TIR-Cer [4] = molecular target: T1, TLR9 TIR-Cer; test: FLIM images of HeLa cells, TLR9/TIR-Cer+9R34-ΔN (FIG. 11B)
MyD88-Cer [5] = molecular target: T2, MyD88-Cer (UniProt Q99836 155-296); test: FRET-FLIM in HeLa cells
T2 construct: The vector is 'described previously'; Expressed in HeLa cells; also called MyD88 TIR-Cer; Cer-labeled MyD88 TIR; not shown: Cerulean fluorescent protein (Cer)

MyD88-Cer [6] = molecular target: T2, MyD88-Cer; test: FRET-FLIM in HeLa cells (FIG. 13)
MyD88-Cer [7] = molecular target: T2, MyD88-Cer; test: FRET-FLIM in HeLa cells expressing MyD88-Cer
MyD88-Cer [8] = molecular target: T2, MyD88-Cer; test: FRET-FLIM in HeLa cells (FIG. 11, 12, 13)

Measured: binding

RQIKIWFQNRRMKWKKALRLCLEERD (Cy3 label at the peptide N-terminus) [Cy3-9R34-ΔN]
binds: TLR9 TIR-Cer [1] | TLR9 TIR-Cer [2] | TLR9 TIR-Cer [3] | TLR9 TIR-Cer [4]

RQIKIWFQNRRMKWKKRSFWAQLGMALTRD (Cy3 label at the peptide N-terminus) [Cy3-9R11]
binds: MyD88-Cer [5] | TLR9 TIR-Cer [2] | MyD88-Cer [6] | TLR9 TIR-Cer [3] | MyD88-Cer [7] | MyD88-Cer [8]
